# Results taken from the supplement of paper PMC8728848.
# The list shows a part of the results.
# Experiments:
# Experiment in all cases: glycan array binding signal (z-score within array); higher = stronger binding
# Settings in all cases: glycan notation: IUPAC condensed, linker removed
# [1] = target: Gal(b1-4)GlcNAc(b1-3)Gal(b1-4)GlcNAc(b1-6)[Gal(b1-3)]GalNAc
# Procedure, shortened: (§1)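 The Consortium for Functional Glycomics database supplied 3228 glycan arrays, of which those lacking an available protein sequence were dropped. The binding signal, a within-array Z-score, was averaged across arrays of the same protein sequence and across linkers. Negative scores can be read as non-binding.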
# [2] = target: Gal(b1-4)GlcNAc(b1-3)Gal(b1-4)[Fuc(a1-3)]GlcNAc(b1-3)Gal(b1-4)[Fuc(a1-3)]GlcNAc
# Procedure, shortened: as §1
# [3] = target: Gal(b1-4)GlcNAc(b1-3)GalNAc
# Procedure, shortened: as §1
# [4] = target: Gal(b1-4)GlcNAc(b1-3)[Fuc(a1-3)GlcNAc(b1-6)]Gal(b1-4)Glc
# Procedure, shortened: as §1
# [5] = target: Gal(b1-4)GlcNAc(b1-3)[Gal(b1-4)GlcNAc(b1-6)]Gal(b1-4)GlcNAc
# Procedure, shortened: as §1
# [6] = target: Gal(b1-4)GlcNAc(b1-3)[GlcNAc(b1-6)]Gal(b1-4)GlcNAc
# Procedure, shortened: as §1
# [7] = target: Gal(b1-4)GlcNAc(b1-6)Gal(b1-4)GlcNAc
# Procedure, shortened: as §1
# [8] = target: Gal(b1-4)GlcNAc(b1-6)GalNAc
# Procedure, shortened: as §1
# [9] = target: Gal(b1-4)GlcNAc(b1-6)[Gal(b1-3)]GalNAc
# Procedure, shortened: as §1
# [10] = target: Gal(b1-4)GlcNAc(b1-6)[Gal(b1-4)GlcNAc(b1-3)]GalNAc
# Procedure, shortened: as §1
# Gal(b1-4)GlcNAc6P = target: Gal(b1-4)GlcNAc6P
# Procedure, shortened: as §1
# Gal(b1-6)Gal = target: Gal(b1-6)Gal
# Procedure, shortened: as §1
# Gal3S(b1-3)GalNAc = target: Gal3S(b1-3)GalNAc
# Procedure, shortened: as §1
# Gal3S(b1-3)GlcNAc = target: Gal3S(b1-3)GlcNAc
# Procedure, shortened: as §1
# [11] = target: Gal3S(b1-3)[Fuc(a1-4)]GlcNAc
# Procedure, shortened: as §1
# Gal3S(b1-4)Glc = target: Gal3S(b1-4)Glc
# Procedure, shortened: as §1
# Gal3S(b1-4)Glc6S = target: Gal3S(b1-4)Glc6S
# Procedure, shortened: as §1
# Gal3S(b1-4)GlcNAc = target: Gal3S(b1-4)GlcNAc
# Procedure, shortened: as §1
# [12] = target: Gal3S(b1-4)[Fuc(a1-3)]Glc6S
# Procedure, shortened: as §1
# [13] = target: Gal3S(b1-4)[Fuc(a1-3)]GlcNAc
# Procedure, shortened: as §1
# [14] = target: Gal3S(b1-4)[Fuc(a1-3)]GlcNAc6S
# Procedure, shortened: as §1
# Gal3S4S(b1-4)GlcNAc = target: Gal3S4S(b1-4)GlcNAc
# Procedure, shortened: as §1
# Gal3S6S(b1-4)GlcNAc = target: Gal3S6S(b1-4)GlcNAc
# Procedure, shortened: as §1
# Gal3S6S(b1-4)GlcNAc6S = target: Gal3S6S(b1-4)GlcNAc6S
# Procedure, shortened: as §1
# Gal4S(b1-4)GlcNAc = target: Gal4S(b1-4)GlcNAc
# Procedure, shortened: as §1
# Gal4S6S(b1-4)GlcNAc = target: Gal4S6S(b1-4)GlcNAc
# Procedure, shortened: as §1
# Gal6P(b1-4)GlcNAc = target: Gal6P(b1-4)GlcNAc
# Procedure, shortened: as §1
# Gal6S(b1-3)GlcNAc = target: Gal6S(b1-3)GlcNAc
# Procedure, shortened: as §1
# Gal6S(b1-3)GlcNAc6S = target: Gal6S(b1-3)GlcNAc6S
# Procedure, shortened: as §1
# Gal6S(b1-4)Glc = target: Gal6S(b1-4)Glc
# Procedure, shortened: as §1
# Gal6S(b1-4)Glc6S = target: Gal6S(b1-4)Glc6S
# Procedure, shortened: as §1
# Gal6S(b1-4)GlcNAc = target: Gal6S(b1-4)GlcNAc
# Procedure, shortened: as §1
# Gal6S(b1-4)GlcNAc6S = target: Gal6S(b1-4)GlcNAc6S
# Procedure, shortened: as §1
# GalNAc(a1-3)Gal = target: GalNAc(a1-3)Gal
# Procedure, shortened: as §1
# GalNAc(a1-3)GalNAc = target: GalNAc(a1-3)GalNAc
# Procedure, shortened: as §1
# [15] = target: GalNAc(a1-3)GalNAc(b1-3)Gal(a1-4)Gal(b1-4)Glc
# Procedure, shortened: as §1
# [16] = target: GalNAc(a1-3)GalNAc(b1-3)Gal(a1-4)Gal(b1-4)GlcNAc
# Procedure, shortened: as §1
binder,measurement,setting,value
PX9937I-bfa-538-26-538 (Bacteroides fragilis) (protein) DKLDLSPIDYYGSGSYWKTEAQATAYIDGIHKHLRDAAWQHTITFGELRGGRFITGASSDGMGVSNGDIILQNFDETHTGVSKFGDLFGRITNLNLFIARVTDATYLSDEMKNFYLGEVYGLRAFYYFDLYRIYGGVPLRLTADVVEGVIDPNKLYMARSTPKEVMTQIKSDLNKSMEYFGNMNDFDPYKRGKKVYWSKAATECLMGEVYLWTSKVTTGDDVANPADLTIAKTHLESVLNNYNLKMLDDFSQVFNAKNKANDEIIFAIRFLEGEATNSNGTFTYNVGTGSTKNRYQANGEVFGDALDIQNTGNQTYEYNKAVYQNFDDADTRKEATFIASYNKDGKTGELSLYGTHVRKNIGYVNAQGARVYCGDYIFYRLPWVYLTLAEIANMEGDNAAVAKYINLVRKRAYGNAWDETLYAYPETADFTTNELAILHEKDKEFIQEGQRWWDLRRMTLTKGGTPLVFCKEGSLLGDAPILNKSTEAHKLLWPIEKTMLNKDPALEQTPGYK,glycan array binding signal (z-score),[1],3.46
same,glycan array binding signal (z-score),[2],-1.27
same,glycan array binding signal (z-score),[3],-0.439
same,glycan array binding signal (z-score),[4],-0.333
same,glycan array binding signal (z-score),[5],-0.046
same,glycan array binding signal (z-score),[6],0.803
same,glycan array binding signal (z-score),[7],1.23
same,glycan array binding signal (z-score),[8],1.25
same,glycan array binding signal (z-score),[9],-0.735
same,glycan array binding signal (z-score),[10],-0.941
same,glycan array binding signal (z-score),Gal(b1-4)GlcNAc6P,1.44
same,glycan array binding signal (z-score),Gal(b1-6)Gal,0.21
same,glycan array binding signal (z-score),Gal3S(b1-3)GalNAc,-0.819
same,glycan array binding signal (z-score),Gal3S(b1-3)GlcNAc,0.712
same,glycan array binding signal (z-score),[11],0.163
same,glycan array binding signal (z-score),Gal3S(b1-4)Glc,-0.549
same,glycan array binding signal (z-score),Gal3S(b1-4)Glc6S,0.71
same,glycan array binding signal (z-score),Gal3S(b1-4)GlcNAc,0.432
same,glycan array binding signal (z-score),[12],0.004
same,glycan array binding signal (z-score),[13],-0.401
same,glycan array binding signal (z-score),[14],-0.149
same,glycan array binding signal (z-score),Gal3S4S(b1-4)GlcNAc,0.428
same,glycan array binding signal (z-score),Gal3S6S(b1-4)GlcNAc,-0.27
same,glycan array binding signal (z-score),Gal3S6S(b1-4)GlcNAc6S,0.335
same,glycan array binding signal (z-score),Gal4S(b1-4)GlcNAc,0.065
same,glycan array binding signal (z-score),Gal4S6S(b1-4)GlcNAc,-0.741
same,glycan array binding signal (z-score),Gal6P(b1-4)GlcNAc,-0.37
same,glycan array binding signal (z-score),Gal6S(b1-3)GlcNAc,0.399
same,glycan array binding signal (z-score),Gal6S(b1-3)GlcNAc6S,0.325
same,glycan array binding signal (z-score),Gal6S(b1-4)Glc,-0.989
same,glycan array binding signal (z-score),Gal6S(b1-4)Glc6S,0.316
same,glycan array binding signal (z-score),Gal6S(b1-4)GlcNAc,-0.753
same,glycan array binding signal (z-score),Gal6S(b1-4)GlcNAc6S,-0.574
same,glycan array binding signal (z-score),GalNAc(a1-3)Gal,0.126
same,glycan array binding signal (z-score),GalNAc(a1-3)GalNAc,-0.513
same,glycan array binding signal (z-score),[15],-0.029
same,glycan array binding signal (z-score),[16],-0.912

# Given with tabs: entries from further up
binder	measurement	setting	value
PX9937I-bfa-538-26-538 (Bacteroides fragilis) (protein) DKLDLSPIDYYGSGSYWKTEAQATAYIDGIHKHLRDAAWQHTITFGELRGGRFITGASSDGMGVSNGDIILQNFDETHTGVSKFGDLFGRITNLNLFIARVTDATYLSDEMKNFYLGEVYGLRAFYYFDLYRIYGGVPLRLTADVVEGVIDPNKLYMARSTPKEVMTQIKSDLNKSMEYFGNMNDFDPYKRGKKVYWSKAATECLMGEVYLWTSKVTTGDDVANPADLTIAKTHLESVLNNYNLKMLDDFSQVFNAKNKANDEIIFAIRFLEGEATNSNGTFTYNVGTGSTKNRYQANGEVFGDALDIQNTGNQTYEYNKAVYQNFDDADTRKEATFIASYNKDGKTGELSLYGTHVRKNIGYVNAQGARVYCGDYIFYRLPWVYLTLAEIANMEGDNAAVAKYINLVRKRAYGNAWDETLYAYPETADFTTNELAILHEKDKEFIQEGQRWWDLRRMTLTKGGTPLVFCKEGSLLGDAPILNKSTEAHKLLWPIEKTMLNKDPALEQTPGYK	glycan array binding signal (z-score)	Gal6S(b1-3)GlcNAc	0.399
same	glycan array binding signal (z-score)	Gal6S(b1-3)GlcNAc6S	0.325
